Data: patent publication US4775676A, “Thiazolidine derivatives, process for their preparation and pharmaceutical compositions” (Chiesi Farmaceutici S.p.A., priority 1985, dated 1988)
Counter-ions that a name gives are not always drawn. At least one compound was matched to its structure with a doubt left.

Tested on: porcine gastric mucine
Assay: "In vitro" mucolytic activity (viscoelasticity of porcine gastric mucine)
Format: biochemical
Settings: 6% porcine gastric mucine, 25° C., 30 minutes, 0.075 Hz, versus control
Description: "In vitro" mucolytic activity
Control samples were similarly added with the vehicle only. After incubation at 25° C. for 30 minutes, the analysis of the rheologic characteristics was carried out by means of Contraves Low-Shear 30 sinus viscosimeter provided with an oscillating device for the study of the viscoelasticity. The dynamic measurements of the viscoelasticity were carried out at a single frequency (0.075 Hz), using an appropriate concentrical cylinder measurement system, particularly suited for bronchial mucus (Contraves MS-LS 1-1).
The rheogramm was recorded on X/Y Rikadenki 11T recorder and the […] determination was carried out by means of vectorial calculation.
The percent decreases versus control samples, reported in Table 1, were determined from the means of the values of said parameters (at least 7 replications per sample).

Compound | "in vitro" % decrease elasticity (G') [%] | "in vitro" % decrease viscosity (.eta.) [%] | "in vitro" % decrease elasticity (G') (sodium salt) [%] | "in vitro" % decrease viscosity (.eta.) (sodium salt) [%]
O=C(O)C1C2C=CC(C2)C1C(=O)N1CCSC1 (stereo not shown) [Compound 3, 3-[(3-thiazolidyl)-carbonyl]-bicyclo-[2,2,1]-hepta-5-ene-2-carboxylic acid] | 28 | 41 |  | 
O=C(O)CCC(=O)N1CCSC1 [Compound 4, 4-oxo-4-(3-thiazolidyl)-butanoic acid] | 24 | 49 |  | 
O=C(CCC(=O)N1CCSC1)N1CCSC1 [Compound 7, 1,4-Bis-(3-thiazolidyl)-1,4-dioxo-butane] | 22 | 41 |  | 
N[C@@H](CSCC(=O)N1CCSC1)C(=O)O [Compound 8, 2-Amino-3-[[(3-thiazolidyl)-carbonylmethyl]thio]propionic acid] | 4 | 3 |  | 
O=C(O)CCC(=O)N1CCSC1 [Compound 10, 4-oxo-4-(3-thiazolidyl)butanoic acid sodium salt] |  |  | 10 | 11
